These are yes or no findings as the source states them, for the method shown. Binding seen in cells or lysates may run through a third protein. Some entries that bind do so weakly or less than the wild type.
Target: calreticulin (CALR) (human (endogenous in A549 and H460)) (UniProt P27797)
Assay: co-IP; Pierce co-IP Kit; 10 ug anti-CALR or anti-PDIA3 antibody immobilised on resin; pre-cleared A549 and H460 cell lysates incubated overnight at 4°C; eluates analysed by western blot

For “protein disulfide isomerase family A member 3 (PDIA3) (from UniProt P30101 25-505)”, the binding was “binds”.

— PMC5722536
